# Reference: publication PMC5996148
# The chains behind the UniProt entries cited, without tags or fusion partners. Where a name states a change or a piece, a line headed by the entry shows the natural chain unless it says otherwise.
# UniProt P32019: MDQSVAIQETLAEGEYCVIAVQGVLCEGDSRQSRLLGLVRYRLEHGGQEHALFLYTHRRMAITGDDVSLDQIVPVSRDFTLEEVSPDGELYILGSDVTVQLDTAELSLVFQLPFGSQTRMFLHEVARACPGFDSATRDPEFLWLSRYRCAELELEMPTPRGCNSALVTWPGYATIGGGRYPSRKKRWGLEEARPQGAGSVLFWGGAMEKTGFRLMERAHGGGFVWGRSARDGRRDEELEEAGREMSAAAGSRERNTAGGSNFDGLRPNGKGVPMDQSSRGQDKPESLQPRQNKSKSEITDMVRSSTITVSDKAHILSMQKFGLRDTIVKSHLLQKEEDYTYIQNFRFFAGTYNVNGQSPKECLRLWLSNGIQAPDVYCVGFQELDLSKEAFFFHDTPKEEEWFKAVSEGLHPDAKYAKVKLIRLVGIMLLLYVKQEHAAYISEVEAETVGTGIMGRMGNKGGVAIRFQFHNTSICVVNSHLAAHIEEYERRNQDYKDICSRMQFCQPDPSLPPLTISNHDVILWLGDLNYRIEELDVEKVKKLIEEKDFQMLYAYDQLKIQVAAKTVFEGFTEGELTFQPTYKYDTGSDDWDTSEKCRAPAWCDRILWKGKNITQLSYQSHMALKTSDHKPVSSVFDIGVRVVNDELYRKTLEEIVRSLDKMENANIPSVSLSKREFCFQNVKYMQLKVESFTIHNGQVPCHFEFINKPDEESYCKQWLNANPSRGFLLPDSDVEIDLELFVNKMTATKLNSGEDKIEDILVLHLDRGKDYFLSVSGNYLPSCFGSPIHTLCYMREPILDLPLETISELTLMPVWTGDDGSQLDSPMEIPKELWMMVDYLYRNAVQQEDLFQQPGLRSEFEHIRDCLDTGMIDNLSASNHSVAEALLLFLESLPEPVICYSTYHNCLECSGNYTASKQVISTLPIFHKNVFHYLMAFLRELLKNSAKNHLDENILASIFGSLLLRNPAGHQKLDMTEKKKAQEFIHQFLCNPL
# “And” between values parts separate entries of the source, which are not always exact repeats. Identical values can stand only once. Some of the results follow. For some assays here: The source does not settle which construct or isoform was used.
# Key:
# Assay in all cases: protein microarray (ProtoArray v5.0), streptavidin-Alexa Fluor 647
# Conditions in all cases: 3'-biotin; 20 mM Tris (pH 7.5), 5 mM MgCl2, 100 mM KCl, 0.1% Tween-20, A/T-rich and random oligonucleotide blockers; temperature not stated; high values mean tight binding
# [1] = system: IL7 (human)
# [2] = system: IL8RA (human)
# [3] = system: ILVBL (human)
# [4] = system: IMPA2 (human)
# [5] = system: IMPDH1 (human)
# [6] = system: INDO (human)
# [7] = system: ING3 (human)
# [8] = system: INPP1 (human)
# [9] = biological target: INPP5B (UniProt P32019)
# [10] = system: INTS4 (human)
# [11] = system: INVS (human)
# [12] = system: IQ and ubiquitin-like domain-containing protein (human)
# [13] = system: IRAK3 (human)
# [14] = system: IREB2 (human)
# [15] = system: IRF1 (human)
# [16] = system: IRF3 (human)
# [17] = biological target: T1, IRF4 (UniProt Q15306)
# T1 sequence: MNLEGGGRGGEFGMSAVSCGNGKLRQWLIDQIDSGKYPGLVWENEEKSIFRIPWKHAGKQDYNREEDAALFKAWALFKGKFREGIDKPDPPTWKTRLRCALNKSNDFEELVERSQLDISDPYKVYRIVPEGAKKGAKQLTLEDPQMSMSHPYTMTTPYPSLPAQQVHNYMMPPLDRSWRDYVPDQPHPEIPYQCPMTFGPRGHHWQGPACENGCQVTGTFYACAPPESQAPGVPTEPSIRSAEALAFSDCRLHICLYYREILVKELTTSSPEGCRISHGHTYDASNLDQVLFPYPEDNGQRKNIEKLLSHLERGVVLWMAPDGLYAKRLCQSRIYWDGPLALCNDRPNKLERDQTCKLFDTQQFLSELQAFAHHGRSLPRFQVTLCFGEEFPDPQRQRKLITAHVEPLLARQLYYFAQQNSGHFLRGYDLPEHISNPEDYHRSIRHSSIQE
# [18] = system: IRF5 (human)
# [19] = system: IRF6 (human)
# [20] = system: ISG15 (human)
sequence,measurement,setting,value
GGGAGGCTGAGGCAGG [G4-1 biotinylated (PQS2)],binding signal,[1],-0.345 z-score
same,binding signal,[2],-0.321 z-score
same,binding signal,[3],-0.312 z-score and -0.324 z-score
same,binding signal,[4],-0.252 z-score
same,binding signal,[5],-0.336 z-score
same,binding signal,[6],-0.321 z-score
same,binding signal,[7],-0.353 z-score
same,binding signal,[8],-0.316 z-score
same,binding signal,[9],-0.314 z-score
same,binding signal,[10],-0.308 z-score
same,binding signal,[11],-0.355 z-score
same,binding signal,[12],-0.304 z-score
same,binding signal,[13],-0.322 z-score
same,binding signal,[14],-0.298 z-score
same,binding signal,[15],-0.279 z-score
same,binding signal,[16],-0.307 z-score
same,binding signal,[17],-0.316 z-score
same,binding signal,[18],-0.337 z-score
same,binding signal,[19],-0.347 z-score
same,binding signal,[20],-0.301 z-score
